Data published in the supplement of paper PMC8728848.
The other results are listed elsewhere or left out.

Key:
Assay in all cases: glycan array binding signal (z-score within array); higher = stronger binding
Conditions in all cases: glycan notation: IUPAC condensed, linker removed
[1] = target: GlcNAc(a1-4)Gal(b1-3)GlcNAc
How it was run: (§1)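 Glycan array binding is given as a within-array Z-score, which can be read as non-binding when negative. The arrays, 3228 of them, came from the Consortium for Functional Glycomics database and were retained only where the protein sequence was available. Z-scores were averaged across arrays of the same protein sequence at different concentrations or buffers and across linkers.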

[2] = target: GlcNAc(a1-4)Gal(b1-4)GalNAc
How it was run: as §1

[3] = target: GlcNAc(a1-4)Gal(b1-4)GlcNAc
How it was run: as §1

[4] = target: GlcNAc(a1-4)Gal(b1-4)GlcNAc(b1-3)Gal(b1-4)Glc
How it was run: as §1

[5] = target: GlcNAc(a1-4)Gal(b1-4)GlcNAc(b1-3)Gal(b1-4)GlcNAc
How it was run: as §1

[6] = target: GlcNAc(a1-4)Gal(b1-4)GlcNAc(b1-3)Gal(b1-4)GlcNAc(b1-3)Gal(b1-4)GlcNAc
How it was run: as §1

[7] = target: GlcNAc(a1-4)Gal(b1-4)GlcNAc(b1-3)Gal(b1-4)[Fuc(a1-3)]GlcNAc(b1-3)Gal(b1-4)[Fuc(a1-3)]GlcNAc
How it was run: as §1

[8] = target: GlcNAc(a1-6)Gal(b1-4)GlcNAc
How it was run: as §1

[9] = target: GlcNAc(b1-2)Gal(b1-3)GalNAc
How it was run: as §1

[10] = target: GlcNAc(b1-2)Man(a1-3)[GlcNAc(b1-2)Man(a1-6)]Man(b1-4)GlcNAc(b1-4)GlcNAc
How it was run: as §1

[11] = target: GlcNAc(b1-2)Man(a1-3)[GlcNAc(b1-2)Man(a1-6)]Man(b1-4)GlcNAc(b1-4)[Fuc(a1-6)]GlcNAc
How it was run: as §1

[12] = target: GlcNAc(b1-2)Man(a1-3)[GlcNAc(b1-4)][GlcNAc(b1-2)Man(a1-6)]Man(b1-4)GlcNAc(b1-4)GlcNAc
How it was run: as §1

[13] = target: GlcNAc(b1-2)Man(a1-3)[GlcNAc(b1-4)][GlcNAc(b1-2)Man(a1-6)]Man(b1-4)GlcNAc(b1-4)[Fuc(a1-6)]GlcNAc
How it was run: as §1

[14] = target: GlcNAc(b1-2)[GlcNAc(b1-4)]Man(a1-3)[GlcNAc(b1-2)Man(a1-6)]Man(b1-4)GlcNAc(b1-4)GlcNAc
How it was run: as §1

[15] = target: GlcNAc(b1-2)[GlcNAc(b1-4)]Man(a1-3)[GlcNAc(b1-4)][GlcNAc(b1-2)Man(a1-6)]Man(b1-4)GlcNAc(b1-4)GlcNAc
How it was run: as §1

[16] = target: GlcNAc(b1-2)[GlcNAc(b1-4)]Man(a1-3)[GlcNAc(b1-4)][GlcNAc(b1-2)[GlcNAc(b1-6)]Man(a1-6)]Man(b1-4)GlcNAc(b1-4)GlcNAc
How it was run: as §1

[17] = target: GlcNAc(b1-2)[GlcNAc(b1-4)]Man(a1-3)[GlcNAc(b1-4)][GlcNAc(b1-2)[GlcNAc(b1-6)]Man(a1-6)]Man(b1-4)GlcNAc(b1-4)[Fuc(a1-6)]GlcNAc
How it was run: as §1

[18] = target: GlcNAc(b1-2)[GlcNAc(b1-6)]Man(a1-6)[GlcNAc(b1-2)Man(a1-3)]Man(b1-4)GlcNAc(b1-4)GlcNAc
How it was run: as §1

[19] = target: GlcNAc(b1-2)[GlcNAc(b1-6)]Man(a1-6)[GlcNAc(b1-2)Man(a1-3)]Man(b1-4)GlcNAc(b1-4)[Fuc(a1-6)]GlcNAc
How it was run: as §1

[20] = target: GlcNAc(b1-2)[GlcNAc(b1-6)]Man(a1-6)[GlcNAc(b1-4)][GlcNAc(b1-2)Man(a1-3)]Man(b1-4)GlcNAc(b1-4)GlcNAc
How it was run: as §1

GlcNAc(b1-3)Fuc = target: GlcNAc(b1-3)Fuc
How it was run: as §1

GlcNAc(b1-3)Gal = target: GlcNAc(b1-3)Gal
How it was run: as §1

[21] = target: GlcNAc(b1-3)Gal(b1-3)GalNAc
How it was run: as §1

GlcNAc(b1-3)Gal(b1-4)Glc = target: GlcNAc(b1-3)Gal(b1-4)Glc
How it was run: as §1

[22] = target: GlcNAc(b1-3)Gal(b1-4)GlcNAc
How it was run: as §1

[23] = target: GlcNAc(b1-3)Gal(b1-4)GlcNAc(b1-2)Man(a1-3)[GlcNAc(b1-3)Gal(b1-4)GlcNAc(b1-2)Man(a1-6)]Man(b1-4)GlcNAc(b1-4)GlcNAc
How it was run: as §1

[24] = target: GlcNAc(b1-3)Gal(b1-4)GlcNAc(b1-2)Man(a1-3)[GlcNAc(b1-3)Gal(b1-4)GlcNAc(b1-2)Man(a1-6)]Man(b1-4)GlcNAc(b1-4)[Fuc(a1-6)]GlcNAc
How it was run: as §1

[25] = target: GlcNAc(b1-3)Gal(b1-4)GlcNAc(b1-2)[GlcNAc(b1-3)Gal(b1-4)GlcNAc(b1-6)]Man(a1-6)[GlcNAc(b1-3)Gal(b1-4)GlcNAc(b1-2)Man(a1-3)]Man(b1-4)GlcNAc(b1-4)GlcNAc
How it was run: as §1

[26] = target: GlcNAc(b1-3)Gal(b1-4)GlcNAc(b1-3)Gal(b1-4)GlcNAc
How it was run: as §1

[27] = target: GlcNAc(b1-3)Gal(b1-4)GlcNAc(b1-3)Gal(b1-4)GlcNAc(b1-2)Man(a1-3)[GlcNAc(b1-3)Gal(b1-4)GlcNAc(b1-3)Gal(b1-4)GlcNAc(b1-2)Man(a1-6)]Man(b1-4)GlcNAc(b1-4)GlcNAc
How it was run: as §1

[28] = target: GlcNAc(b1-3)Gal(b1-4)GlcNAc(b1-3)Gal(b1-4)GlcNAc(b1-2)Man(a1-3)[GlcNAc(b1-3)Gal(b1-4)GlcNAc(b1-3)Gal(b1-4)GlcNAc(b1-2)Man(a1-6)]Man(b1-4)GlcNAc(b1-4)[Fuc(a1-6)]GlcNAc
How it was run: as §1

[29] = target: GlcNAc(b1-3)Gal(b1-4)GlcNAc(b1-3)Gal(b1-4)GlcNAc(b1-2)[GlcNAc(b1-3)Gal(b1-4)GlcNAc(b1-3)Gal(b1-4)GlcNAc(b1-6)]Man(a1-6)[GlcNAc(b1-3)Gal(b1-4)GlcNAc(b1-3)Gal(b1-4)GlcNAc(b1-2)Man(a1-3)]Man(b1-4)GlcNAc(b1-4)[Fuc(a1-6)]GlcNAc
How it was run: as §1

[30] = target: GlcNAc(b1-3)Gal(b1-4)GlcNAc(b1-3)Gal(b1-4)GlcNAc(b1-3)Gal(b1-4)GlcNAc(b1-2)Man(a1-3)[GlcNAc(b1-3)Gal(b1-4)GlcNAc(b1-3)Gal(b1-4)GlcNAc(b1-3)Gal(b1-4)GlcNAc(b1-2)Man(a1-6)]Man(b1-4)GlcNAc(b1-4)GlcNAc
How it was run: as §1

[31] = target: GlcNAc(b1-3)Gal(b1-4)GlcNAc(b1-3)Gal(b1-4)GlcNAc(b1-3)Gal(b1-4)GlcNAc(b1-2)Man(a1-3)[GlcNAc(b1-3)Gal(b1-4)GlcNAc(b1-3)Gal(b1-4)GlcNAc(b1-3)Gal(b1-4)GlcNAc(b1-2)Man(a1-6)]Man(b1-4)GlcNAc(b1-4)[Fuc(a1-6)]GlcNAc
How it was run: as §1

[32] = target: GlcNAc(b1-3)Gal(b1-4)GlcNAc(b1-3)Gal(b1-4)GlcNAc(b1-3)Gal(b1-4)GlcNAc(b1-2)[GlcNAc(b1-3)Gal(b1-4)GlcNAc(b1-3)Gal(b1-4)GlcNAc(b1-3)Gal(b1-4)GlcNAc(b1-6)]Man(a1-6)[GlcNAc(b1-3)Gal(b1-4)GlcNAc(b1-3)Gal(b1-4)GlcNAc(b1-3)Gal(b1-4)GlcNAc(b1-2)Man(a1-3)]Man(b1-4)GlcNAc(b1-4)[Fuc(a1-6)]GlcNAc
How it was run: as §1

[33] = target: GlcNAc(b1-3)Gal(b1-4)GlcNAc(b1-3)Gal(b1-4)GlcNAc(b1-3)Gal(b1-4)GlcNAc(b1-3)Gal(b1-4)GlcNAc(b1-2)Man(a1-3)[GlcNAc(b1-3)Gal(b1-4)GlcNAc(b1-3)Gal(b1-4)GlcNAc(b1-3)Gal(b1-4)GlcNAc(b1-3)Gal(b1-4)GlcNAc(b1-2)Man(a1-6)]Man(b1-4)GlcNAc(b1-4)GlcNAc
How it was run: as §1

[34] = target: GlcNAc(b1-3)Gal(b1-4)GlcNAc(b1-3)Gal(b1-4)GlcNAc(b1-3)Gal(b1-4)GlcNAc(b1-3)Gal(b1-4)GlcNAc(b1-2)Man(a1-3)[GlcNAc(b1-3)Gal(b1-4)GlcNAc(b1-3)Gal(b1-4)GlcNAc(b1-3)Gal(b1-4)GlcNAc(b1-3)Gal(b1-4)GlcNAc(b1-2)Man(a1-6)]Man(b1-4)GlcNAc(b1-4)[Fuc(a1-6)]GlcNAc
How it was run: as §1

[35] = target: GlcNAc(b1-3)Gal(b1-4)GlcNAc(b1-3)Gal(b1-4)GlcNAc(b1-3)Gal(b1-4)GlcNAc(b1-3)Gal(b1-4)GlcNAc(b1-2)[GlcNAc(b1-3)Gal(b1-4)GlcNAc(b1-3)Gal(b1-4)GlcNAc(b1-3)Gal(b1-4)GlcNAc(b1-3)Gal(b1-4)GlcNAc(b1-6)]Man(a1-6)[GlcNAc(b1-3)Gal(b1-4)GlcNAc(b1-3)Gal(b1-4)GlcNAc(b1-3)Gal(b1-4)GlcNAc(b1-3)Gal(b1-4)GlcNAc(b1-2)Man(a1-3)]Man(b1-4)GlcNAc(b1-4)[Fuc(a1-6)]GlcNAc
How it was run: as §1

B1: GS13599A-bth-520-23-520 (Bacteroides thetaiotaomicron) (protein)
chain: SEDTMDRINKDHDHTTSVASRFILADVITSTAFSNASGDINTYASSYIEYEVGVDNQLYYAEVRENEPSSSSTFNNSWNGIYSSLKNARIIIDQCGEGGRDHGNDVTRGMAEVMAAYNCALIADFFGDAPCSQAALVDEKGSPVYMTPKMDTQQEIYTQIISYLDDAIANLQKEDLADVTEQDFLYAGDADKWLKFAYGLKARYTMRLINRSSNKSADYEKVLDYVSKSFTSADDQAAFDIYDSNNINPFYGFYNSRAGFGASTSLGTKLLAYNDPRANRAFFTPIVDKKRSQVAANDPSLVPAPNGSPDQSTSKYGISAFVYAKTAPTLLMSYHELMFLKAEALCRLNRDAEDALKEAVVAGLLNAENSISIAIKELGSGLNTNSSEVITETSAGKYFDDVVKAKYAANPLQETMIQKYLAMWGASGEATETYNDFRRMKGLNENFITLTNPNNSSKFPLRYPYGNSDTAANPEVKAAYGNGDYVYSEPVWWAGGSR
[1]
  glycan array binding signal (z-score): 0.375
[2]
  glycan array binding signal (z-score): -1.3
[3]
  glycan array binding signal (z-score): -0.237
[4]
  glycan array binding signal (z-score): -0.357
[5]
  glycan array binding signal (z-score): -0.261
[6]
  glycan array binding signal (z-score): -0.449
[7]
  glycan array binding signal (z-score): 1.74
[8]
  glycan array binding signal (z-score): -0.737
[9]
  glycan array binding signal (z-score): -0.441
[10]
  glycan array binding signal (z-score): -0.727
[11]
  glycan array binding signal (z-score): 0.409
[12]
  glycan array binding signal (z-score): 2.52
[13]
  glycan array binding signal (z-score): 1.21
[14]
  glycan array binding signal (z-score): -0.063
[15]
  glycan array binding signal (z-score): -1.27
[16]
  glycan array binding signal (z-score): 0.339
[17]
  glycan array binding signal (z-score): 0.827
[18]
  glycan array binding signal (z-score): -0.308
[19]
  glycan array binding signal (z-score): 0.819
[20]
  glycan array binding signal (z-score): 1.19
GlcNAc(b1-3)Fuc
  glycan array binding signal (z-score): -0.118
GlcNAc(b1-3)Gal
  glycan array binding signal (z-score): -1.3
[21]
  glycan array binding signal (z-score): 1.12
GlcNAc(b1-3)Gal(b1-4)Glc
  glycan array binding signal (z-score): -1.27
[22]
  glycan array binding signal (z-score): -0.599
[23]
  glycan array binding signal (z-score): -0.584
[24]
  glycan array binding signal (z-score): -0.287
[25]
  glycan array binding signal (z-score): 1.84
[26]
  glycan array binding signal (z-score): -0.947
[27]
  glycan array binding signal (z-score): 1.66
[28]
  glycan array binding signal (z-score): 1.66
[29]
  glycan array binding signal (z-score): 1.37
[30]
  glycan array binding signal (z-score): 1.67
[31]
  glycan array binding signal (z-score): 1.88
[32]
  glycan array binding signal (z-score): 0.815
[33]
  glycan array binding signal (z-score): -0.827
[34]
  glycan array binding signal (z-score): -0.522
[35]
  glycan array binding signal (z-score): 0.725
